Measurements reported in publication PMC11892016.
These are yes or no findings as the source states them, for the method shown. A result given as binding can be weak or reduced; the word gives no strength.

Protein sequences, listed by entry. Tags and fused reporters are not part of them. Lines headed by an entry give the natural chain unless they say otherwise; changes in a name come on top.
UniProt P12830: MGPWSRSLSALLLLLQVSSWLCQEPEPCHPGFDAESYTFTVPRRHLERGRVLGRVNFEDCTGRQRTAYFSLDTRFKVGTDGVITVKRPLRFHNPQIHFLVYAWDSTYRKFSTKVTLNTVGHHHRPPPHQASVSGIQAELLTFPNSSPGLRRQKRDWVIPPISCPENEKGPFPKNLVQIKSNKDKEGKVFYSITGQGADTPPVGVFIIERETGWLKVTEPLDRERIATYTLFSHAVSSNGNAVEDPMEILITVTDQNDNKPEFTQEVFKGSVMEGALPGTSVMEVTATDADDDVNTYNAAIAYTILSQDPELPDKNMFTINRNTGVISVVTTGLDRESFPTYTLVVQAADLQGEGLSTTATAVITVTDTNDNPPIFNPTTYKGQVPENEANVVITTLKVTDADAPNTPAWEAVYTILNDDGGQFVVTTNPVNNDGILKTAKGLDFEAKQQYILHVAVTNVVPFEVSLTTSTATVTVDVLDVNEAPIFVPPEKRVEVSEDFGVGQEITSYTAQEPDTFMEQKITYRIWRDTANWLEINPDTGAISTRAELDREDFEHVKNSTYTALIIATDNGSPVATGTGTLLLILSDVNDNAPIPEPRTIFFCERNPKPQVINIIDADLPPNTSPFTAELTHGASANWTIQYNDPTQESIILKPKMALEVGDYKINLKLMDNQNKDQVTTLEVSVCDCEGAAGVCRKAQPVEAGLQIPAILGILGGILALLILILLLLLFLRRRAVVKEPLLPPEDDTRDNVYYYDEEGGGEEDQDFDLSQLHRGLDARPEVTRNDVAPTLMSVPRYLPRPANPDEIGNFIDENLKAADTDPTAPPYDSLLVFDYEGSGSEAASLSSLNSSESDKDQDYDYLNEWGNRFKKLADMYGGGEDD
UniProt O43474: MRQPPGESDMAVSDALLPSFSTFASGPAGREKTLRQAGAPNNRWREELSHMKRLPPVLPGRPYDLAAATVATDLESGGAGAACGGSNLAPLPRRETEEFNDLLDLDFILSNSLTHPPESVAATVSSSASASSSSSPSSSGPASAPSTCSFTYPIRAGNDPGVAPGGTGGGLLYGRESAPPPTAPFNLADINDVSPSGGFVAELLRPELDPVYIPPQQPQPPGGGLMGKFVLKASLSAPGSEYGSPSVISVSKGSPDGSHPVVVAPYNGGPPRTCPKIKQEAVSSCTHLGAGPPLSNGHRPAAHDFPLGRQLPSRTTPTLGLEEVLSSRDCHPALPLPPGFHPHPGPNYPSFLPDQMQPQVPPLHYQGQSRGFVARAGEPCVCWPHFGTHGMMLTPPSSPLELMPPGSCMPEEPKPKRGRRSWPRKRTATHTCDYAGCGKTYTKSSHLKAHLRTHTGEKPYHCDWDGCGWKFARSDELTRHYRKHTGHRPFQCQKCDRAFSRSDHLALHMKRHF

Biological target: GST‐E‐cadherin (human) (UniProt P12830)
Assay: pull-down; GST-E-cadherin held on GST resin, washed; purified KLF4-His added; eluate analysed by SDS-PAGE and Western blot with anti-His and anti-GST; both purified

- binding: binds
Substance: KLF4‐His (from UniProt O43474 1-513)
